# Assay results reported in PubChem BioAssay AID540276 (National Center for Advancing Translational Sciences (NCATS), 2011).
# The whole screen tested about 300,000 compounds, of which about 5,400 (1.8%) were called active. The shares of active, inactive and inconclusive entries below differ from those in the screen. Calls follow the shape of the full dose curve; tested in HEK293 cells. Potencies beside an inconclusive call are fits to weak or partial responses and may not hold up.
# Assay: qHTS for inhibitors of binding or entry into cells for Marburg Virus
# Conditions: Marburg virus pseudotyped entry inhibition, cell reporter; activity change, negative = inhibition: at 37.8 µM (top of the series) unless noted
# % is scaled to controls: 0 for no effect and ±100 for the full control effect; potency is read from the fitted curve at half-maximal effect.
Structure (SMILES),Potency,"activity change, negative = inhibition"
CCCCN(C)CCCNC(=O)C1CCN(c2nc3ccc(CC)cc3s2)CC1,"inconclusive: 35.5 µM [inhibitor, single point]",
CCOc1ccc(C2CC(c3cccc(OC)c3OC)n3nnnc3N2)cc1Cl (centres undefined),inactive,
CC1CN(S(=O)(=O)c2cc(C(=O)N(CCc3ccccc3)Cc3ccccc3)ccc2Cl)CC(C)O1 (centres undefined),"inconclusive: 8.91 µM [inhibitor, partial curve, poor fit]",
Cc1cc2nc3c(c(C(F)(F)F)n2n1)CCCC3,,inactive: 13.8% [at 46.1 µM]
CC(=O)NNc1nc(-c2ccccc2)c2cc(Br)ccc2n1,"inconclusive: 0.206 µM [inhibitor, full curve]",
c1ccc(CN2CCN(Cc3c[nH]c4ccccc34)CC2)cc1,"inconclusive: 20 µM [inhibitor, single point]",
COc1ccccc1N1CCN(c2ncnc3c2oc2ccccc23)CC1,"inconclusive: 3.55 µM [inhibitor, full curve]",
CC1Cc2cc(S(=O)(=O)N3CCC(C(=O)Nc4ccccn4)CC3)ccc2N1C(=O)C1CCC1 (centres undefined),"inconclusive: 10 µM [inhibitor, partial curve, poor fit]",
COCCn1c(C)cc(C(=O)CSc2nnnn2C2CCCC2)c1C,"inconclusive: 2.82 µM [inhibitor, full curve]",
O=C(COC(=O)COc1ccccc1)Nc1ccc2c(c1)OCCO2,,inactive: -5.55% [at 46.1 µM]
C#CCn1c(=NC(=O)c2ccc(S(=O)(=O)N3CCc4ccccc4C3)cc2)sc2cc(S(N)(=O)=O)ccc21,active: 14.1 µM,
COc1ccc(N2CCN(C(=O)c3ccc(N(C)S(=O)(=O)c4ccc(OC)cc4)cc3)CC2)cc1,,inactive: -0.123% [at 46.1 µM]
COc1ccc(COCC(O)CN2CC(C)OC(C)C2)cc1OC (centres undefined),,inactive: -0.803%
C=CCSc1nc2sc3c(c2c(=O)n1CC=C)CCc1ccccc1-3,"inconclusive: 5.62 µM [activator, single point]",
CC(C)c1ccc(CCNC(=O)CSC(=S)N2CCCC2)cc1,,inactive: -5.26%
Cc1ccc(NC(=O)C2C(=O)N(CCO)C3(C)CC2c2ccccc2O3)cc1 (centres undefined),,inactive: 13.6%
COc1ccc(NC(=O)CCC(=O)c2cccs2)cc1S(=O)(=O)Nc1ccccc1Cl,"inconclusive: 18.4 µM [inhibitor, single point]",
CC1CCCN(c2ccc(/C=C(\C#N)c3nn(-c4ccccc4)c(N)c3C#N)cc2[N+](=O)[O-])C1 (centres undefined),"inconclusive: 17.8 µM [inhibitor, partial curve, poor fit]",
O=C(COc1ccc2ccc(=O)oc2c1)c1ccccc1,,inactive: 15.4%
CCCCCc1c(C)[nH]c2nc3ccccc3n2c1=O,"inconclusive: 5.01 µM [activator, single point]",
CN(C)c1ccc(C(=O)/C=C/c2ccccc2)cc1,"inconclusive: 35.5 µM [inhibitor, single point]",
Cc1ccc(S(=O)(=O)NC(C(=O)N2CCOCCOCCOCC2)c2ccccc2)cc1 (centres undefined),"inconclusive: 10 µM [inhibitor, partial curve, poor fit]",

# In the list so far, three have a Cl atom:
Structure (SMILES),Potency,"activity change, negative = inhibition"
CCOc1ccc(C2CC(c3cccc(OC)c3OC)n3nnnc3N2)cc1Cl (centres undefined),inactive,
CC1CN(S(=O)(=O)c2cc(C(=O)N(CCc3ccccc3)Cc3ccccc3)ccc2Cl)CC(C)O1 (centres undefined),"inconclusive: 8.91 µM [inhibitor, partial curve, poor fit]",
COc1ccc(NC(=O)CCC(=O)c2cccs2)cc1S(=O)(=O)Nc1ccccc1Cl,"inconclusive: 18.4 µM [inhibitor, single point]",

# (next part)

Structure (SMILES),Potency,"activity change, negative = inhibition"
O=C(Nc1cccnc1)c1cc(-c2cccnc2)nc2ccc(Br)cc12,"inconclusive: 18.3 µM [inhibitor, single point]",
O=C(O)c1ccccc1C(=O)Nc1ccccc1NC(=O)c1ccccc1C(=O)O,"inconclusive: 10 µM [inhibitor, partial curve]",
Cc1cc(O)c(-c2cc(C(=O)NCCc3ccc(S(N)(=O)=O)cc3)[nH]n2)cc1C,"inconclusive: 7.08 µM [inhibitor, partial curve, poor fit]",
O=C(N/N=C/c1ccc(O)cc1O)NC12CC3CC(CC(C3)C1)C2,,inactive: -29.6% [at 46.1 µM]
CCC(=O)Oc1ccc2c(=O)c(-c3ccc4ccccc4n3)c(CC)oc2c1C,"inconclusive: 1.12 µM [inhibitor, full curve, poor fit]",
Cc1ccc(C(=O)OCC(=O)c2ccc[nH]2)s1,"inconclusive: 23.1 µM [activator, single point]",
COc1ccc(-c2cc(C(F)(F)F)n3nc(C(=O)Nc4cc(Cl)cc(Cl)c4)cc3n2)cc1,,inactive: 0.175% [at 46.1 µM]
CSCCC(NC(=O)c1cccc(C)c1)C(=O)OCN1C(=O)c2ccccc2C1=O (centres undefined),"inconclusive: 35.5 µM [activator, single point]",
CCOc1ccccc1CN1CCC(N2CCC(C(=O)NC3CC3)CC2)CC1,"inconclusive: 35.5 µM [inhibitor, single point]",
Cc1ccc(S(=O)(=O)N2CCN(C(=O)CSc3ncc(C(F)(F)F)cc3Cl)CC2)cc1,"inconclusive: 35.5 µM [inhibitor, single point]",
NC(=O)c1ccccc1OCc1nc2ccccc2s1,"inconclusive: 35.5 µM [inhibitor, single point]",
CCC(c1nnnn1C(C)(C)C)N(Cc1ccco1)Cc1cc2cccc(C)c2[nH]c1=O (centres undefined),"inconclusive: 29.1 µM [inhibitor, single point]",
O=C(Cc1ccc(Cl)c(Cl)c1)Nc1ccc(SC(F)F)cc1,"inconclusive: 29.1 µM [inhibitor, single point]",
CC(=O)Nc1nc(C2CC2)cc(-c2ccccc2)c1C#N,"inconclusive: 5.62 µM [activator, single point]",
Cc1ccc(C2=N/C(=C\N3CCCCC3)C(=O)O2)cc1,"inconclusive: 0.58 µM [activator, full curve]",
CC(C)(C)OC(=O)N1CC(O)CC1C(=O)OCC(=O)c1ccccc1 (centres undefined),"inconclusive: 0.178 µM [inhibitor, partial curve, poor fit]",
O=C(CCN1CCOCC1)c1ccc(Br)cc1,,inactive: 3.45%
COC(=O)c1c(C)[nH]c(C(=O)/C=C/c2ccccc2F)c1C,"inconclusive: 0.112 µM [inhibitor, partial curve, poor fit]",
COc1ccccc1NC(=S)N(Cc1ccccn1)Cc1ccccc1Cl,"inconclusive: 2.51 µM [activator, single point]",
C=CCn1c(O)c(C(C)=Nc2cccc(C(=O)O)c2)c(=O)[nH]c1=O,,inactive: 13.5% [at 46.1 µM]
O=C(Nc1nnc(-c2ccncc2)o1)c1ccc2ccccc2c1,,inactive: 8.72% [at 46.1 µM]
Cc1ccc(C(=O)N2CCCC(C(=O)c3ccc(Cl)cc3C)C2)cn1 (centres undefined),"inconclusive: 35.5 µM [inhibitor, single point]",
